The values below come from patent US20080255139A1, “Use Of 4- (4-Methylpiperazin-1-Ylmethyl)-N-[4-Methyl-3-(4-(Pyridin-3-Yl)Pyrimidin-2-Ylamino)Phenyl]-Benzamide to Inhibit the Tyrosine Kinase Receptor C-Fms” (priority 2004, published 2008).

Each structure is given as a SMILES string.

Assay [1] concerns the target PDGF receptor tyrosine kinase. The settings on record: read-out: IC50 PDGF receptor tyrosine kinase; cited from earlier work.
Assay [2] has as its system FDC-cfms cells (M-CSF dependent, c-fms). Put plainly: cells. The settings on record: read-out: IC50, growth of M-CSF stimulated cells.
For another assay, the system named is FDC-cfms cells. Put plainly: cells. The settings on record: read-out: IC50, growth of IL-3 stimulated cultures.

With `Cc1ccc(NC(=O)c2ccc(CN3CCN(C)CC3)cc2)cc1Nc1nccc(-c2cccnc2)n1` [Compound I, 4-(4-methylpiperazin-1-ylmethyl)-N-[4-methyl-3-(4-(pyridin-3-yl)pyrimidin-2-ylamino)phenyl]-benzamide], the IC50 in assay [1] was 250 nM; in assay [2], 1100 nM; with FDC-cfms cells it was 5900 nM.

As a reminder, the IC50 is the concentration at which inhibition is half-maximal.
